Assay results reported in publication PMC8425412.
No constants are given. Whether binding was seen depends on the method and setting. In cells and extracts the contact can be indirect. Binding calls can cover weak binding; strength is not graded here. Where a sequence is shown, tags or fusion partners need not be part of it.

Target: T1, GFP-PDK1 PH domain (UniProt O15530)
T1 sequence: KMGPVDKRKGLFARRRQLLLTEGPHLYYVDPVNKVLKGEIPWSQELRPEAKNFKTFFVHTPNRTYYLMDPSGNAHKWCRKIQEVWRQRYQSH
Test: co-IP; HEK293T cells co-transfected, 24 h; lysate in 20 mM Tris/HCl pH 8, 150 mM NaCl, 1% Triton X-100; precipitated with anti-GFP and protein A/G at 4°C for 2 h; Western blot; in Figures 5D, E cells treated with TAT-conjugated peptides

- binding: binds
Substance: HA-Akt (PKB/Akt, protein kinase B) (enzyme)
